Patent US20200282035A1 (MILTENYI BIOTEC B V, published 2020)
No constants are given. Whether binding was seen depends on the method and setting. Some entries that bind do so weakly or less than the wild type.

The chains behind the UniProt entries cited, without tags or fusion partners. Residues count along the entry.
UniProt P26006, residues 33-1051: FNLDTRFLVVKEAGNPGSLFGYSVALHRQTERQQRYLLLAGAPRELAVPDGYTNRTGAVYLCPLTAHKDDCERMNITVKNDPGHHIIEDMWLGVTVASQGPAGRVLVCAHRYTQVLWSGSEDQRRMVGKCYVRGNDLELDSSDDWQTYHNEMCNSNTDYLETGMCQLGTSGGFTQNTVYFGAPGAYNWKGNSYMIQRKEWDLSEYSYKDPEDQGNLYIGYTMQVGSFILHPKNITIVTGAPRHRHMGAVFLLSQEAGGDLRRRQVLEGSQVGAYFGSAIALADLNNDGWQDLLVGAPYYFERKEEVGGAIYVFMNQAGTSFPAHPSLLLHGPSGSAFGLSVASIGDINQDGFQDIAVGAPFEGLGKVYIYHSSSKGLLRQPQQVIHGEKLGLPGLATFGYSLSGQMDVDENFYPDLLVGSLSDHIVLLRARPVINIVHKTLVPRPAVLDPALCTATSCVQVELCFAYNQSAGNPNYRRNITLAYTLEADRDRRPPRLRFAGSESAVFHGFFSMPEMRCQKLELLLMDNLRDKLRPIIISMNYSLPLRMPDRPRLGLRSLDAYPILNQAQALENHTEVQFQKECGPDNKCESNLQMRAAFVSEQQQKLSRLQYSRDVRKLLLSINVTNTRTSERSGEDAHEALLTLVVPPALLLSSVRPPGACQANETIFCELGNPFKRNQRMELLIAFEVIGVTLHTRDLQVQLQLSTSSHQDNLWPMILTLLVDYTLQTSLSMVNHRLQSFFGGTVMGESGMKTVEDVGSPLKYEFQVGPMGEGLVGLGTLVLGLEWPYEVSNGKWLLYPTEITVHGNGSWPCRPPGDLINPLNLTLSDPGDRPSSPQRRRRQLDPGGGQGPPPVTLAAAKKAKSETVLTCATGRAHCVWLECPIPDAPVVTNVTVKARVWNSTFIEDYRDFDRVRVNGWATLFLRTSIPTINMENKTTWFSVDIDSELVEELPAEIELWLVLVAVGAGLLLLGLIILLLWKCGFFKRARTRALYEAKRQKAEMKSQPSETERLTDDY
UniProt P16144, residues 28-1822: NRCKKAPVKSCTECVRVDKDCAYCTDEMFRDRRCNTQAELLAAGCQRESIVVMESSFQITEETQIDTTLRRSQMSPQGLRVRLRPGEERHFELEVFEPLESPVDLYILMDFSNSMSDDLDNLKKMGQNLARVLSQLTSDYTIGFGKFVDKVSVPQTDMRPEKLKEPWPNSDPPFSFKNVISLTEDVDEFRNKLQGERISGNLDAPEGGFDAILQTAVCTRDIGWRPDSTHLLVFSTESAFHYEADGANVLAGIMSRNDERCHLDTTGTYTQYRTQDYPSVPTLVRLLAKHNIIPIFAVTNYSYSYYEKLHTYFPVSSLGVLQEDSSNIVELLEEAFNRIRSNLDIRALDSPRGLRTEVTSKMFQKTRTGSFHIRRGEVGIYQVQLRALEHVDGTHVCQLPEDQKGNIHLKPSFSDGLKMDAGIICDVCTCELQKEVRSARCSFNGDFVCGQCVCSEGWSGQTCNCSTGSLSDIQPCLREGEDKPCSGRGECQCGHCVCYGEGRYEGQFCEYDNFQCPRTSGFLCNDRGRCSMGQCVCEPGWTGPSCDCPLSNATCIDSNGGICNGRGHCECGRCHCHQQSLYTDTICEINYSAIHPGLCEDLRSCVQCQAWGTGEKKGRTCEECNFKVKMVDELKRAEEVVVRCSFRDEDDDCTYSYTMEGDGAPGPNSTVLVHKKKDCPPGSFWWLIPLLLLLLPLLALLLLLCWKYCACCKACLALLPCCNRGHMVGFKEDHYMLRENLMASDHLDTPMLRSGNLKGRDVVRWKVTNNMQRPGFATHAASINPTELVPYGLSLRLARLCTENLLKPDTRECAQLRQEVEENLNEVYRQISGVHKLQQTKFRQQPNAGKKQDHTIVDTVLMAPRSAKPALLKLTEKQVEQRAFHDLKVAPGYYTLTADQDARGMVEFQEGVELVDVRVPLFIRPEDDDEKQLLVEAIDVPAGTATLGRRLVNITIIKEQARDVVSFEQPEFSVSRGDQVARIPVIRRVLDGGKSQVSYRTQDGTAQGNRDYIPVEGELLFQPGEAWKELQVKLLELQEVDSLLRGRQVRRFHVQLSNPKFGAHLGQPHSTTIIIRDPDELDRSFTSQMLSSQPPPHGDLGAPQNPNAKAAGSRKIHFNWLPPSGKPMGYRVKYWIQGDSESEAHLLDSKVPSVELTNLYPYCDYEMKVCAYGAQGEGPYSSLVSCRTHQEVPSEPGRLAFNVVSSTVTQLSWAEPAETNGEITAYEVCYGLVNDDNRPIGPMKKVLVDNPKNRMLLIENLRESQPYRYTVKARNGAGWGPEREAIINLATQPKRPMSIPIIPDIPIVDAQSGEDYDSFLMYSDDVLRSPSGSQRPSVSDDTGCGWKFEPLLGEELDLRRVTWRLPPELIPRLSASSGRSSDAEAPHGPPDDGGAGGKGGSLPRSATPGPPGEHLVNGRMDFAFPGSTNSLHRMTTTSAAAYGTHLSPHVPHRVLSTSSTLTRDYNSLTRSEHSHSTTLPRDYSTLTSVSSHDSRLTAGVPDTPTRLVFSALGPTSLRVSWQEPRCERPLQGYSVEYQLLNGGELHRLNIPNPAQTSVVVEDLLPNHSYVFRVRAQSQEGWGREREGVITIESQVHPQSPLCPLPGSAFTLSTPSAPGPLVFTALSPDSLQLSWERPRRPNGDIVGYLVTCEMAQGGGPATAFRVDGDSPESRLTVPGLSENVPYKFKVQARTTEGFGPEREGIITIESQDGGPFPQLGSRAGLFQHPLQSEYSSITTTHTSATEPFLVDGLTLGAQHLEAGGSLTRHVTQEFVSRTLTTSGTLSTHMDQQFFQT

B1: CD49c specific CAR sequence VH-linker-VL (scFv, not shown: small tags and cut ends)
scFv: EVQLQQSGAELVKPGASVKLSCTASGFNIKDTYMHWVKQRPEQGLEWIGRIDPANGHTKYDPKFQGKATITADTSSNAAYLQLNSLTSEDTAVYYCARRVAYAMDYWGQGTSVTVSSGGGGSGGGGSGGGGSENVLTQSPAIMSASPGEKVTMTCSASSSVTYMHWYQQKSSTSPKLWIYDTSKLASGVPGRFSGSGSGNSYSLTISSMEAEDVATYCCFQGSGYPLTFGGGTKLEIK
B2: CD49c specific CAR sequence VL-linker-VH (scFv, not shown: small tags and cut ends)
scFv: ENVLTQSPAIMSASPGEKVTMTCSASSSVTYMHWYQQKSSTSPKLWIYDTSKLASGVPGRFSGSGSGNSYSLTISSMEAEDVATYCCFQGSGYPLTFGGGTKLEIKGGGGSGGGGSGGGGSEVQLQQSGAELVKPGASVKLSCTASGFNIKDTYMHWVKQRPEQGLEWIGRIDPANGHTKYDPKFQGKATITADTSSNAAYLQLNSLTSEDTAVYYCARRVAYAMDYWGQGTSVTVSS
B3: CD104 specific CAR sequence VH-linker-VL (scFv, not shown: small tags and cut ends)
scFv: QVNLLQSGAALVKPGASVKLSCKASGYTFTDYYIFWVKQSHGKSLEWIGYINPNSGSTNYNEKFKRKATLSVDKSTNTAYMELSRLTSEDSATYYCTRRAYYGYNPFDYWGQGVMVTVSSGGGGSGGGGSGGGGSDIQMTQTPSSMPASLGERVTISCRASRGINNYLSWYQQNLDGTIKPLIYYTSNLQSGVPSRFSGSGSGTDYSLTISSLEPEDFAMYYCQQYDSSPWTFGGGTKLELK
B4: CD104 specific CAR sequence VL-linker-VH (scFv, not shown: small tags and cut ends)
scFv: DIQMTQTPSSMPASLGERVTISCRASRGINNYLSWYQQNLDGTIKPLIYYTSNLQSGVPSRFSGSGSGTDYSLTISSLEPEDFAMYYCQQYDSSPWTFGGGTKLELKGGGGSGGGGSGGGGSQVNLLQSGAALVKPGASVKLSCKASGYTFTDYYIFWVKQSHGKSLEWIGYINPNSGSTNYNEKFKRKATLSVDKSTNTAYMELSRLTSEDSATYYCTRRAYYGYNPFDYWGQGVMVTVSS
B5: CD104 specific antibody (antibody, V domains shown)
VH: QVNLLQSGAALVKPGASVKLSCKASGYTFTDYYIFWVKQSHGKSLEWIGYINPNSGSTNYNEKFKRKATLSVDKSTNTAYMELSRLTSEDSATYYCTRRAYYGYNPFDYWGQGVMVTVSS
VL: DIQMTQTPSSMPASLGERVTISCRASRGINNYLSWYQQNLDGTIKPLIYYTSNLQSGVPSRFSGSGSGTDYSLTISSLEPEDFAMYYCQQYDSSPWTFGGGTKLELK

Experiments:
CD49c (human) = CD49c (human) (UniProt P26006); test: scFv as binding domain of a CAR on T cells; told in words only, no direct binding assay
CD104 (human) [1] = biological target: CD104 (human) (UniProt P16144); test: as above
CD104 (human) [2] = biological target: CD104 (human) (UniProt P16144); test: antibody used for staining of human pancreatic cancer cells (flow cytometry, immunohistochemistry; Example 1); told in words only

Binder | binding (CD49c (human)) | binding (CD104 (human) [1]) | also measured
B1 | binds |  | 
B2 | binds |  | 
B3 |  | binds | 
B4 |  | binds | 
B5 |  |  | binding (CD104 (human) [2]): binds
